What all share (assay): co-IP; non-denaturing co-IP with WT or 3KR Myc-Olig2 as bait; co-expressed Flag-Olig2, Olig1, Nkx2.2 or Sox10 as prey (Fig. S5F-I); lysis buffer 20 mM Tris-HCl pH 7.5, 150 mM NaCl, 1% Triton X-100, 0.1% SDS, 2 mM EDTA, 10% glycerol
For assay [1], the target named is T1, Myc-Olig2 (wild type) (mouse) (UniProt Q9EQW6).
T1 sequence: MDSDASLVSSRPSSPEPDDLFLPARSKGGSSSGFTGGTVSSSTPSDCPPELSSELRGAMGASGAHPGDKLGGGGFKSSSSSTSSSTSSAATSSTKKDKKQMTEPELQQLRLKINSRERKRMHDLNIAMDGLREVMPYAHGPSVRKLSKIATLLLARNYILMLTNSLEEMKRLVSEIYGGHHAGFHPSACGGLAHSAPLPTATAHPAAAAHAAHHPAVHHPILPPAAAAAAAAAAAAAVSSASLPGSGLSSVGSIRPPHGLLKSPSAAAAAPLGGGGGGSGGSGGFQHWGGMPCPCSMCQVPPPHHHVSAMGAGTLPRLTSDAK

By UniProt entry, the sequences of proteins in these tests, tags left out.
UniProt Q04888: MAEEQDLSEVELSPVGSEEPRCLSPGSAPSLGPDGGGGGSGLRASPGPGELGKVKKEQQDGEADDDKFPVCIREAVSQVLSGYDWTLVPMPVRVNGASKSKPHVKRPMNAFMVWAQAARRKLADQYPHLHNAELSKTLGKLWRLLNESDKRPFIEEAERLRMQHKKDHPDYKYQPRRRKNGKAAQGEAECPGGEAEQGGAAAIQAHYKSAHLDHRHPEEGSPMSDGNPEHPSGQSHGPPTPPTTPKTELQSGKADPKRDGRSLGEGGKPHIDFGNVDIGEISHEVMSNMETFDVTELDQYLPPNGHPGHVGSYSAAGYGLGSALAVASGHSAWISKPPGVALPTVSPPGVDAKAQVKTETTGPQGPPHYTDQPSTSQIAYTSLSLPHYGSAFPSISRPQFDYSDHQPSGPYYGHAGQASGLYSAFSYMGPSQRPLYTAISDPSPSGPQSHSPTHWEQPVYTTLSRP

For assay [2], the target named is T2, Myc-Olig2 3KR (K27/76/112R) (mouse) (UniProt Q9EQW6).
T2 sequence: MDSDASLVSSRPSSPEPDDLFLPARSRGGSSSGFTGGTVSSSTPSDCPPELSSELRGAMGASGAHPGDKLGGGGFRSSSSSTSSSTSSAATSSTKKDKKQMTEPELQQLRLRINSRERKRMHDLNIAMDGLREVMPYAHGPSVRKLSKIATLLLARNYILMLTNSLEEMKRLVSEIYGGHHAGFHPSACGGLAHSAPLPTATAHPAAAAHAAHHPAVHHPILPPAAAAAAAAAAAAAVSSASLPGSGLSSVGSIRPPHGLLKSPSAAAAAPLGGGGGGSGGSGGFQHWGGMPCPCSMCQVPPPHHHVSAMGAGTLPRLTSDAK

The target in assay [3] is T3, Myc-Olig2 (wild type) (mouse), Q9EQW6.
T3 chain: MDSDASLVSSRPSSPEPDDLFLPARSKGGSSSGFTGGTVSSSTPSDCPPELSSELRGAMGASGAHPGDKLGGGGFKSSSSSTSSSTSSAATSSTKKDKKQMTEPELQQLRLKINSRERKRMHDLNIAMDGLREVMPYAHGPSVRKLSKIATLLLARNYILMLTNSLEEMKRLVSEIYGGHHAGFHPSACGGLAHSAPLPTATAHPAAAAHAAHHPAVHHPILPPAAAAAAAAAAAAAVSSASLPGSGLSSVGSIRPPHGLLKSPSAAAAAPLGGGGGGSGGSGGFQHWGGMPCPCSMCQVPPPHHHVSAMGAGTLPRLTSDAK
The settings on record: remark: other sources report otherwise.

No constants are given. Whether binding was seen depends on the method and setting. In cells and extracts the contact can be indirect. Some entries that bind do so weakly or less than the wild type. Tags and fused reporters may be left off the sequences shown.

Take HA-Sox10 (from UniProt Q04888 1-466): the binding result in assay [1] and in assay [2] was “binds” each time.

B1: Flag-Olig2 (wild type), Q9EQW6 1-323 (protein)
chain: MDSDASLVSSRPSSPEPDDLFLPARSKGGSSSGFTGGTVSSSTPSDCPPELSSELRGAMGASGAHPGDKLGGGGFKSSSSSTSSSTSSAATSSTKKDKKQMTEPELQQLRLKINSRERKRMHDLNIAMDGLREVMPYAHGPSVRKLSKIATLLLARNYILMLTNSLEEMKRLVSEIYGGHHAGFHPSACGGLAHSAPLPTATAHPAAAAHAAHHPAVHHPILPPAAAAAAAAAAAAAVSSASLPGSGLSSVGSIRPPHGLLKSPSAAAAAPLGGGGGGSGGSGGFQHWGGMPCPCSMCQVPPPHHHVSAMGAGTLPRLTSDAK
B1: the binding result in assay [3] is “binds”.

B2: HA-Olig1 (protein, UniProt Q9JKN5 1-260)
chain: MYYAISQARVNAAPATMLRPQRPGDVQLGASLYELVGYRQPPISSSSSSSSSTASLLPKPAREKAEAPLAEPRGPAPESGGARADAKEEQQQQQLRRKINSRERKRMQDLNLAMDALREVILPYSAAHCQGAPGRKLSKIATLLLARNYILLLGSSLQELRRALGDGAGPAAPRLLLAGLPLLAAAPGSVLLAPGAVGPPETLRPTKYLSLALDEPPCGQFSLPAGGAGSPGLCSCAVCKFPHLVPAGLGLAAVQAQFSK
On to B2, for which the binding result in assay [1] and in assay [2] was “binds” throughout.

B3: HA-Nkx2.2 (protein, UniProt P42586 1-273)
chain: MSLTNTKTGFSVKDILDLPDTNDEDGSVAEGPEEESEGPEPAKRAGPLGQGALDAVQSLPLKSPFYDSSDNPYTRWLASTEGLQYSLHGLAASAPPQDSSSKSPEPSADESPDNDKETQGGGGDAGKKRKRRVLFSKAQTYELERRFRQQRYLSAPEREHLASLIRLTPTQVKIWFQNHRYKMKRARAEKGMEVTPLPSPRRVAVPVLVRDGKPCHALKAQDLAAATFQAGIPFSAYSAQSLQHMQYNAQYSSASTPQYPTAHPLVQAQQWTW
On to B3, for which the binding entry in assay [1] and in assay [2] was “binds” in each case.

For the origin of these results see article PMC7560653.
